These are yes or no findings as the source states them, for the method shown. Binding seen in cells or lysates may run through a third protein. Some results given as binding are weak or reduced against the parent protein; the word gives no strength.
Experiments:
[1] = target: Anxa2 (human (endogenous in MCF-7/ADR)) (UniProt P07355); experiment: co-IP; MCF-7/ADR cells lysed in ice-cold RIPA buffer (150 mM NaCl, 50 mM Tris-HCl pH 7.4, 5 mM EDTA, 1% Triton X-100, 0.1% SDS); 1 mg lysate immunoprecipitated with 2 ug anti-P-gp (JSB-1) or anti-Anxa2 (C10) overnight at 4°C with protein G-Sepharose beads; immunoblotting; normal mouse IgG as …
[2] = target: P-glycoprotein (human (endogenous in MCF-7/ADR)) (UniProt P08183); experiment: as above

By UniProt entry, the sequences of proteins in these tests, tags left out.
UniProt P07355: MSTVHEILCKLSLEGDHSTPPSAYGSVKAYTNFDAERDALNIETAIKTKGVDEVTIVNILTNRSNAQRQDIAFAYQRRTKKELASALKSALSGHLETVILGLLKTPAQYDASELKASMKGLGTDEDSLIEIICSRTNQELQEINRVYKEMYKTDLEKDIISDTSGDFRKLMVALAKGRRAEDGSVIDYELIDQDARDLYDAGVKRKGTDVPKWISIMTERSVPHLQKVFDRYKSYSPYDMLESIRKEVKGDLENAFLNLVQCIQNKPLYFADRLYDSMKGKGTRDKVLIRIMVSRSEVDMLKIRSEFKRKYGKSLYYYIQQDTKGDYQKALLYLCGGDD
UniProt P08183: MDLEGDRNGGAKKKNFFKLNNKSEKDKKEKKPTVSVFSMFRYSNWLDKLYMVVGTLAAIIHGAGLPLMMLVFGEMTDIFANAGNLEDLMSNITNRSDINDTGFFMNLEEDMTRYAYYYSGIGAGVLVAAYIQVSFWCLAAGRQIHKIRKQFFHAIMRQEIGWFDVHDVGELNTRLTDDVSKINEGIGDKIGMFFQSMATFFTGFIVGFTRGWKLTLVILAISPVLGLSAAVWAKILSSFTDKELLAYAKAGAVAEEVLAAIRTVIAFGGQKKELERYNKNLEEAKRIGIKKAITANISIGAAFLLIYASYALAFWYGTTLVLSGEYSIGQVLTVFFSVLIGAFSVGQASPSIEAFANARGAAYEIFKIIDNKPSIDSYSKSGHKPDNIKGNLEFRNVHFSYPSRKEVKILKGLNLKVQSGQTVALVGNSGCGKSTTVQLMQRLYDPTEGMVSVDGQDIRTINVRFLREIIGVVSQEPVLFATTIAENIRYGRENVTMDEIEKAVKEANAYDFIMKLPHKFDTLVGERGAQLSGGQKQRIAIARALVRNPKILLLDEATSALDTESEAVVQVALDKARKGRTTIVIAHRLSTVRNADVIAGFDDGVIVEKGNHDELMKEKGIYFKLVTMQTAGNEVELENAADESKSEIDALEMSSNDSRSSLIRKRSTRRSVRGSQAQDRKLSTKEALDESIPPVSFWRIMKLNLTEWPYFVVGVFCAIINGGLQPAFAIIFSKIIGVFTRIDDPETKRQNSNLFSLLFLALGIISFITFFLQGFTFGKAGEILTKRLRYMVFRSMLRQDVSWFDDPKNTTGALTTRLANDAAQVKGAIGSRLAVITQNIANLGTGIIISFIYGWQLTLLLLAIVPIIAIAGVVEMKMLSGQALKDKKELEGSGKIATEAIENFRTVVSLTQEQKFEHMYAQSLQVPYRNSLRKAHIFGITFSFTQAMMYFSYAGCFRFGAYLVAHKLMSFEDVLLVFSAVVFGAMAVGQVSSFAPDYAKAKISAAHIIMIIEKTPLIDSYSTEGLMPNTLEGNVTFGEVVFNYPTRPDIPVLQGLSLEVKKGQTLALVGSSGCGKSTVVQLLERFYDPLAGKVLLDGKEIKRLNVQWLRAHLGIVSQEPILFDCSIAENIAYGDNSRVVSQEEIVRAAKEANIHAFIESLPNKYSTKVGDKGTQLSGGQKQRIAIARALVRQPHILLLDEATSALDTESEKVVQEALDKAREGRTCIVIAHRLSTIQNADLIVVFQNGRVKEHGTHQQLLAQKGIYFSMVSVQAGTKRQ

Substance | binding [1] | binding [2]
P-glycoprotein (from UniProt P08183 1-1280) | binds | –
Anxa2 (from UniProt P07355 1-339) | – | binds

From article PMC3643660
